Data as given in patent US20230183309A1 (Dana-Farber Cancer Institute, Inc., priority 2019, published 2023).
Not every detail of the peptide structures is certain; ends, links or a residue may be inferred. Some of these results come from one statement about several compounds together.

Experiments:
[1] = Circular dichroism spectroscopy; type: physicochemical; details: 50 µM in 25% acetonitrile/water, 25° C.
db/db mice = experiment: Glycemic control in diabetic Lepr^db (db/db) mice; type: in vivo, mouse; details: single 10 nmol/kg IP
B6 mice = experiment: Glucose tolerance test in fasted mice; type: in vivo, mouse; details: 10 nmol/kg IP, glucose 2 g/kg IP
Procedure: To evaluate whether the relative proteolytic stability of SAH-GLP-1(16,23,30) translated into a functional benefit in vivo, glucose tolerance tests in mice were performed. Mice (n=8 per arm) were fasted overnight and administered the corresponding panel of peptides at 10 nmol/kg intraperitoneally followed by a glucose bolus (2 g/kg) 30 minutes later, and then serial serum glucose monitoring was performed over time.
In vivo efficacy testing of SAH-GLP-1 peptides. Male B6 and db/db mice (JAX 000697) at 10-12 weeks of age were housed (5 mice/cage) at a constant room temperature of 24° C. on a normal day-light cycle and provided a standard diet ad libitum. After one week of acclimatization, B6 mice (n=8 per treatment arm) were fasted for 16 hours overnight and the following morning baseline blood glucose levels were measured (Onetouch), followed by intraperitoneal (IP) injection of vehicle (saline) or the indicated peptide (10 nmol/kg). Thirty minutes later, the mice were treated with a bolus IP injection of glucose (2 g/kg, 20% aqueous solution), followed by serial blood glucose monitoring at 0, 15, 30, 60, and 120 minutes. To evaluate the comparative anti-hyperglycemic effects of peptides in db/db mice (n=8 per treatment arm), vehicle (saline) or the indicated peptide (10 nmol/kg) was injected IP and blood glucose levels monitored at 0, 15, 30, 60, and 720 minutes.

SMILES: CC[C@H](C)[C@@H]1NC(=O)[C@H](Cc2ccccc2)NC(=O)[C@H](CCC(=O)O)NC(=O)[C@H](CCCCN)NC(=O)[C@H](C)NC(=O)[C@H](C)NC(=O)C2(CCCC=CCCCCCC[C@@](C)(NC(=O)[C@H](CC(=O)O)NC(=O)[C@H](CO)NC(=O)[C@@H](NC(=O)[C@H](Cc3ccccc3)NC(=O)[C@@H](NC(=O)CNC(=O)[C@H](CCC(=O)O)NC(=O)C(C)(C)NC(=O)[C@@H](N)Cc3c[nH]cn3)[C@@H](C)O)[C@@H](C)O)C(=O)N[C@@H](CO)C(=O)N[C@@H](CO)C(=O)N[C@@H](Cc3ccc(O)cc3)C(=O)N[C@@H](CC(C)C)C(=O)N[C@@H](CCC(=O)O)C(=O)NCC(=O)N2)CCCC=CCCCCCC[C@@](C)(C(=O)N[C@@H](Cc2c[nH]c3ccccc23)C(=O)N[C@@H](CC(C)C)C(=O)N[C@H](C(=O)N[C@@H](CCCCN)C(=O)NCC(=O)N[C@@H](CCCNC(=N)N)C(N)=O)C(C)C)NC1=O (some centres unmarked) [SAH-GLP-1(16,23,30), HJEGTFTSD8SSYLEG#AAKEFIZWLVKGR]
- alpha-helical structure in solution (circular dichroism) [1]: maintain the alpha-helical structure
- speed of serum glucose reduction compared to semaglutide (db/db mice; 15 and 30 min): more rapid reduction
- reduction in glucose level compared to vehicle and wild-type GLP-1 (db/db mice; sustained for 12 hours): 2-2.5 fold
- lowering of maximum serum glucose concentration relative to vehicle control (B6 mice): nearly half
- time to euglycemia after the glucose bolus (B6 mice): ≤ 60 min
